# Reference: PubChem BioAssay AID1347075 (National Center for Advancing Translational Sciences (NCATS), 2019)
# Values joined by “and” are separate entries in the source; they are usually repeats but may differ in a detail not shown here. Identical values can stand only once. About 5,500 (1.4%) of roughly 400,000 compounds were called active. Inconclusive results, whose numbers are uncertain, are shown with a selection of clear calls. Calls come from the whole dose curve; as a rule, active = well fitted cell-killing curve with a large enough effect; inconclusive = small, poorly fitted or top-dose-only effect, or effect the other way; inactive = flat fitted curve, though single readings scatter. Where the call is inconclusive, the potency comes from a doubtful curve fit.
# Test: qHTS assay for MDR1-selective chemotherapeutics: Primary screen using the parental adenocarcinoma cell KB-3-1; note: nearly all actives have a fitted effect of over 60% in size
# Settings: KB-3-1 viability, CellTiter-Glo ATP luminescence, 72 h; activity change, negative = cytotoxic: at 46.1 µM (top of the series)
# Summary of the method: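 Parental KB-3-1 adenocarcinoma cells in phenol-red-free DMEM with 10% FBS were pin-treated with compounds at several concentrations, incubated 72 h at 37 °C, and viability read by CellTiter-Glo luminescence; concentration-effect curves were fitted after normalization.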
# % is set by controls: 0 for no effect and ±100 for the full control effect; potency is the fitted concentration of half-maximal effect.
SMILES,"activity change, negative = cytotoxic",Potency
Cc1ccc2c(C)c(C(=O)NCC(c3ccc(Cl)cc3)N3CCOCC3)oc2c1 (stereo not given),inactive: -9.83%,–
O=C(c1cccnc1)N(Cc1ccccc1)C(c1ccccc1)c1nc2ccccc2[nH]1 (stereo not given),inactive: 0.0124%,–
COc1cc([N+](=O)[O-])ccc1NC(=O)COC(=O)CCOc1ccc(C)cc1,–,"inconclusive: 18.4 µM [cytotoxic, single point]"
COCC1CCCCN1C(=O)c1ccc(OC2CCN(CCc3ccccc3)CC2)cc1 (stereo not given),–,"inconclusive: 14.6 µM [cytotoxic, single point]"
Cc1nn(CC(O)COc2ccc3c(c2)CCC3)c(C)c1Br (stereo not given),inactive: -18.8%,–
Cc1ccc(NC(=O)NNC(=O)C2CC(c3cccnc3)=NO2)cc1 (stereo not given),inactive: -2.82%,–
Cc1ccc(N2C(=O)C3CCC(C)(C2=O)C3(C)C)cc1C (stereo not given),–,"inconclusive: 0.0366 µM [cytotoxic, full curve]"
CCC(c1nnnn1C1CCCC1)N(Cc1cccs1)Cc1cc2cc(C)ccc2[nH]c1=O (stereo not given),–,"inconclusive: 29.1 µM [cytotoxic, single point]"
CN(C)S(=O)(=O)c1cc(C(=O)OCCn2cnc3c2c(=O)n(C)c(=O)n3C)ccc1Cl,inactive: 1.09%,–
CC1(C)C(=O)N(c2ccccc2)C1c1ccccc1O (stereo not given),–,"inconclusive: 29.1 µM [cytotoxic, single point]"
O=C(C[C@H]1C/C=C\CC[C@@H](Cc2ccc(F)cc2)C(=O)O[C@@H](c2ccccc2)CNC1=O)N[C@@H](CO)Cc1ccccc1,inactive: 0%,–
COc1ccccc1N1CCN(C(=O)c2cccc(N3C(=O)NC4CC3(C)Oc3ccccc34)c2)CC1 (stereo not given),–,"inconclusive: 29.1 µM [cytotoxic, single point]"
CC(C)(C)n1nnnc1C(c1cccnc1)N(Cc1ccccc1)Cc1cccs1 (stereo not given),–,"inconclusive: 20.6 µM [cytotoxic, single point]"
CC(C)CN(Cc1c(O)ccc2c(=O)c(-c3ccccc3)coc12)CC(C)C,–,"inconclusive: 29.1 µM [cytotoxic, single point]"
CC1=C(C(=O)OC2CCCC(C)C2)C(c2ccccc2)NC(=O)N1 (stereo not given),inactive: -1.92%,–
COc1ccc(C(=O)N/N=C/C(=O)c2ccccc2)cc1,inactive: 11.8%,–
COC(=O)c1c(-c2cccs2)csc1NC(=O)c1cccnc1,–,"inconclusive: 29.1 µM [cytotoxic, single point]"
Cc1ncc([N+](=O)[O-])n1CCOC(=O)NC(NCc1ccccc1Cl)C(Cl)(Cl)Cl (stereo not given),–,"inconclusive: 3.26 µM [rising, partial curve, poor fit]"
O=C(Nc1ccc(F)cc1)c1ccc(CN2CCc3ccccc3C2)cc1,–,"inconclusive: 10.3 µM [cytotoxic, partial curve]"
COc1ccccc1Nc1nc(N2CCCC2)nc(N2CCOCC2)n1,inactive: -7.19%,–
COc1cc(-c2cnc3c(NC=O)cc(-c4ccsc4)cn23)cc(OC)c1OC,–,active: 0.82 µM
CCc1cccc(NC(=O)c2cc3c(s2)-c2ccccc2OC3)c1,inconclusive: -46.9%,–
COc1cccc(CNC(=O)CSc2nc(=O)n(Cc3ccncc3)c3c2CCC3)c1,inactive: 5.08%,–
CC(=NNc1nc2ccccc2s1)c1ncccn1,–,active: 2.31 µM

SMILES,"activity change, negative = cytotoxic",Potency
O=[N+]([O-])c1ccc(CC(Cl)c2ccccn2)cc1 (stereo not given),inactive: -13.4%,–
Cc1ccc(CNC(=O)c2cc3c(-c4ccc(Cl)cc4)nn(C)c3s2)o1,–,"inconclusive: 29.1 µM [cytotoxic, single point]"
O=C(c1cc(Br)ccc1O)N(Cc1ccco1)Cc1cccs1,inconclusive: -15.4%,–
CCn1c(NCc2cc(Br)ccc2NS(=O)(=O)c2ccc(C)cc2)nc2ccccc21,–,"inconclusive: 29.1 µM [cytotoxic, single point]"
C=CCN(CC=C)S(=O)(=O)c1ccc(C(=O)Nc2nnc(CSC)o2)cc1,–,"inconclusive: 20.6 µM [cytotoxic, single point]"
COc1cc(Cn2c3ccc(NC(=O)CC(C)(C)C)cc3c(=O)n2C)ccc1F,inactive: 0%,–
Cc1cccc(NC(=O)N2CCN(Cc3ccc(Cl)cc3)CC2)c1,–,"inconclusive: 23.1 µM [cytotoxic, partial curve, poor fit]"
COC(=O)Cn1c(CN2CCOCC2)nc2c1c(=O)n(C)c(=O)n2C,inactive: 13.9%,–
Cc1ccc(S(=O)(=O)N2CCN(C(=O)c3ccc(Br)o3)CC2)c(C)c1,inconclusive: -41.9%,–
COc1ccc(/C=C2\CCC(C3CCCC3)C2=O)cc1Cn1cccn1 (stereo not given),inactive: -19.9%,–
COCCCNC(=O)Cn1c(=O)n(-c2ccc(Cl)cc2)c(=O)c2c3c(sc21)CCCCC3,inactive: 14.1%,–
COc1cccc(NC(=O)CSc2nncn2-c2ccccn2)c1,–,"inconclusive: 25.9 µM [rising, single point]"
CCN(CC)S(=O)(=O)c1ccc(N2CCN(C)CC2)c(NC(=O)CSCC(=O)Nc2cccc(C)c2)c1,inactive: -7.07%,–
C=CCc1cc(OC)ccc1OCC(O)CN1CCN(c2ccc(OC)cc2)CC1 (stereo not given),–,inactive
CN(C(=O)c1cccc(NC(=O)C2CCCN(C(=O)OC(C)(C)C)C2)c1)C1CCC1 (stereo not given),–,"inconclusive: 13 µM [cytotoxic, partial curve, poor fit]"
CCc1ccccc1NC(=O)C(=O)NCCc1sc(-c2cccc(C)c2)nc1C,inactive: -7.77%,–
Cc1oc2cc(Br)c(O)c(Br)c2c1-c1ccccc1,–,"inconclusive: 25.9 µM [cytotoxic, single point]"
COc1ccc(CCC(C)NCC2CCCCC2)cc1 (stereo not given),–,"inconclusive: 16.4 µM [cytotoxic, partial curve, poor fit]"
Cn1ncc2c1NC(c1ccc(F)cc1)SCC2=O (stereo not given),–,"inconclusive: 10.3 µM [rising, partial curve, poor fit]"
Cc1cccn2c(CNC3CCCc4ccccc43)c(C(=O)N3CCCCC3)nc12 (stereo not given),–,"inconclusive: 25.9 µM [cytotoxic, partial curve, poor fit]"
COc1cccc(OCCc2c(C)n[nH]c2C)c1,–,"inconclusive: 25.9 µM [cytotoxic, single point]"
Cc1ccc(/C=C/C(=O)NC2=NCCS2)cc1,inactive: 2.3%,–
Cc1ccc(N(CC(=O)Nc2ccc(OC(F)(F)F)cc2)S(=O)(=O)c2c(C)noc2C)cc1,inactive: 2.04%,–
CCOC(=O)c1c(C)[nH]c(C(=O)COC(=O)c2cnc(C)cn2)c1C,–,"inconclusive: 18.4 µM [cytotoxic, single point]"

SMILES,"activity change, negative = cytotoxic",Potency
CC1=C(C)[N+](=O)C2CCCCC2N1[O-] (stereo not given),–,"inconclusive: 29.1 µM [cytotoxic, single point]"
CC(=O)C1=C(O)CC(c2ccccc2)CC1=NCCc1c(C)[nH]c2ccccc12 (stereo not given),–,"inconclusive: 29.1 µM [cytotoxic, single point]"
CC(=O)CCC(=O)OCC(=O)Nc1ccc(SC(F)F)cc1,inactive: 3.3%,–
C[C@H](CO)N1C[C@H](C)[C@@H](CN(C)Cc2ccccc2)Oc2c(NC(=O)C3CCCCC3)cccc2C1=O,–,"inconclusive: 29.1 µM [cytotoxic, single point]"
CCc1ccc(CNC(=O)c2cc3c(s2)-c2ccccc2OC3)cc1,–,active: 14.6 µM
CCn1cc(C(=O)NCC2CCCO2)c2cc(OC)c(OC)cc2c1=O (stereo not given),–,"inconclusive: 10.3 µM [rising, partial curve, poor fit]"
Cc1ccc(C)c(NC(=O)CSc2nnc(-c3ccco3)o2)c1,–,"inconclusive: 32.6 µM [rising, single point]"
CCOc1cc(NC(=O)c2ccco2)c(OCC)cc1NC(=O)c1cc(OC)c(OC)c(OC)c1,–,"inconclusive: 16.4 µM [cytotoxic, single point]"
Cc1cc2c(c(/C=C/C(=O)c3ccccc3)c1)OC1(C=C2)Oc2ccccc2C(=O)N1C (stereo not given),–,active: 16.4 µM
O=C(Nc1cccc(S(=O)(=O)N2CCCCCC2)c1)c1ccc2c(c1)OCO2,–,"inconclusive: 16.4 µM [cytotoxic, partial curve, poor fit]"
COc1ccc(-c2nc3ccccc3c(C(=O)Nc3ccc(S(=O)(=O)Nc4cc(C)on4)cc3)c2C)cc1,–,"inconclusive: 32.6 µM [cytotoxic, single point]"
C/C(=N\N1CCN(Cc2ccccc2Cl)CC1)c1ccc([N+](=O)[O-])cc1,–,"inconclusive: 18.4 µM [cytotoxic, single point]"
COc1ccc2c(c1)CCc1c-2nc2ccccc2c1N1CCOCC1,–,"inconclusive: 20.6 µM [cytotoxic, single point]"
CCOC(=O)c1cc2c(=O)n3ccccc3nc2n(CC2CCCO2)c1=NC(=O)c1cc(C)cc(C)c1 (stereo not given),–,"inconclusive: 3.26 µM [cytotoxic, partial curve, poor fit]"
CCOc1ccccc1/C=N/Nc1cc(C)nc2ccc(C)cc12,inactive: 6.13%,–
Cc1ccnc(NC(=O)c2cc3ccccc3o2)c1,–,"inconclusive: 18.4 µM [cytotoxic, partial curve]"
COc1cccc(C(=O)NC2CC3CCCC(C2)N3Cc2ccc(C)cc2)c1 (stereo not given),inactive: 0.723%,–
S=C(NCCCc1cnc[nH]1)NCCCN(CCc1ccccc1)c1ccc(Br)cn1,–,"inconclusive: 25.9 µM [cytotoxic, partial curve, poor fit] and inconclusive: 29.1 µM [cytotoxic, single point]"
Cc1nn(-c2ccccc2)c(C)c1NC(=O)COc1ccc2ccccc2c1,–,"inconclusive: 25.9 µM [cytotoxic, single point]"
CN(c1ccccc1)S(=O)(=O)c1cc(C(=O)N2CCN(c3ccccn3)CC2)ccc1Cl,–,"inconclusive: 14.6 µM [cytotoxic, partial curve]"
CC(=O)c1cc(F)ccc1OCC(=O)Nc1ccc2c(c1)OCO2,inactive: -14.2%,–
Cc1cc(C)cc(NS(=O)(=O)c2ccc3[nH]cc(C(=O)NCc4ccco4)c(=O)c3c2)c1,–,active: 4.11 µM and active: 7.31 µM
